# In article PMC3107199:
# Amino acid sequences for entries named in this document (tags omitted). A change or cut given only in a name is not applied to a line headed by its entry.
# UniProt Q95RR6: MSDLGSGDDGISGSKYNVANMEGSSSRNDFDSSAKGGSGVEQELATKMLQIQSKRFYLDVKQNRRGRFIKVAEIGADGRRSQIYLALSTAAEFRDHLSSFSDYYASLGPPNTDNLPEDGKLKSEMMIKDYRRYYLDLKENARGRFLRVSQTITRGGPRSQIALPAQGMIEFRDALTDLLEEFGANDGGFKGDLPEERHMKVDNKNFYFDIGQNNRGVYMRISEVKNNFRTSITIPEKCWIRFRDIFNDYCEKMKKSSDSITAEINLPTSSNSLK
# No constants are given. Whether binding was seen depends on the method and setting. In cells and extracts the contact can be indirect. A yes stands for co-enrichment or nearness to the bait. Other partners may have been found.
# Target: GST-Pur α fusion protein (Drosophila melanogaster) (UniProt Q95RR6)
# Assay: affinity purification with mass spectrometry; GST-Pur α (GST alone as control) on glutathione beads packed as a column; dialysed and cleared wild-type adult fly head extract (20 mM Hepes pH 7.2, 0.1 M NaCl) run through; washed, eluted with 0.2, 0.6 and 2 M NaCl buffers; SDS gel, LC-MS/MS; only the target purified
binder,measurement,value
"Retinal degeneration A (protein, UniProt Q09103 1-1457) MQQQQQPSIDQLPEPTASTSNSATTKPTIATATTSTTTTSGNNFHQQLQATTAATMQRLRTTFTRSRTPTGAEMKMQNSLEVPKQVRSASFDEMQLESQRASSSLLKQQSSSSASADERSSEAGFLQVPLAAHQQRSHSFDSATASAGSDDSGTFLEVPRRLKARRSSSTKTPPPCIHCHYLEEYERRMTAEQRYFIDHRELTALSYSNTSSEASEDEDEVEGHNAEEEEEGSAAIEDAEEETTEAATEEADEDPRTEVESEHDHDPDDDAALEMDIRIGNMSQGSSIEESRARLPRQMRRHTIGSSSVTSASEDEGLEGSDNGSPHFGNTLLPPQPTTPCGITFTLSPTNGDYPSPPHLPLDPGSPPISPCSSNSGRLPALAPIISTPCSSADADDAGAAMGLPVRARRRSISRQEAIFVEPTGNSLENVSHEEVDNSNTKSSVDTADSLDEASTMATCGSPGAAGGSGASSSHHNAFVVRDIYLMVPDLKRDRAASVDSCFSKLSSNAKTEELQPSADGCFLTVPNINATRSRSVDIVLPTDEQARYKALSMTGSTVTYADGRTASASNSRRPIRIVPDWTENAVQGEHYWKPTSASGDLCCLNEECIKSGQRMKCSACQLVAHHNCIPFVNEKSTLACKPTYRDVGIRQYREQTTTHHHWVHRKLEKGKCKQCGKFFPMKQAVQSKLFGSKEIVALACAWCHEIYHNKEACFNQAKIGEECRLGNYAPIIVPPSWIVKLPTKGNFKSSIRVSNKNNAASGSGGGGAGGGAGGGGGKSKKQTQRRQKGKEEKKEPRAFIVKPIPSPEVIPVIVFINPKSGGNQGHKLLGKFQHLLNPRQVFDLTQGGPKMGLDMFRKAPNLRVLACGGDGTVGWVLSVLDQIQPPLQPAPAVGVLPLGTGNDLARALGWGGGYTDEPIGKILREIGMSQCVLMDRWRVKVTPNDDVTDDHVDRSKPNVPLNVINNYFSFGVDAHIALEFHEAREAHPERFNSRLRNKMYYGQMGGKDLILRQYRNLSQWVTLECDGQDFTGKLRDAGCHAVLFLNIPSYGGGTHPWNDSFGASKPSIDDGLMEVVGLTTYQLPMLQAGMHGTCICQCRKARIITKRTIPMQVDGEACRVKPSVIEIELLNKALMLSKRKHGRGDVQVNPLEKMQLHILRVTMQQYEQYHYDKEMLRKLANKLGQIEIESQCDLEHVRNMLNTKFEESISYPKVSQDWCFIDSCTAEHYFRIDRAQEHLHYICDIAIDELYILDHEAATMPQTPDQERSFAAFSQRQAQNERRQMDQAQGRGPGSTDEDLQIGSKPIKVMKWKSPILEQTSDAILLAAQSGDLNMLRALHEQGYSLQSVNKNGQTALHFACKYNHRDIVKYIIASATRRLINMADKELGQTALHIAAEQNRRDICVMLVAAGAHLDTLDSGGNTPMMVAFNKNANEIATYLESKQGTQPVDGWLDD",binding,binds
